In patent publication US20230081426A1, “COMPOUNDS AND METHODS FOR KRAS MODULATION AND INDICATIONS THEREFOR” (Plexxikon Inc., priority 2020, published 2023):

Columns and labels:
[1] = biological target: G12V-mutant human KRAS (amino acid residues 1-188) (Homo sapiens, UniProt P01116, G12V); experiment: KRAS Binding Competition Assay (AlphaScreen; biotinylated KRpep-2d analogue), G12V; settings: read-out: KRAS GMean IC50 (uM) MUTATION: G12V, geometric mean
[2] = biological target: G12C-mutant human KRAS (amino acid residues 1-188) (Homo sapiens, UniProt P01116, G12C); experiment: KRAS Binding Disruption Assay (AlphaScreen; biotinylated KRpep-2d analogue or RAF1-RBD), G12C; settings: read-out: KRAS GMean IC50 (uM) MUTATION: G12C, geometric mean
[3] = biological target: G12D-mutant human KRAS (amino acid residues 1-188) (Homo sapiens, UniProt P01116, G12D); experiment: KRAS Binding Disruption Assay (AlphaScreen; biotinylated KRpep-2d analogue or RAF1-RBD), G12D; settings: read-out: KRAS GMean IC50 (uM) MUTATION: G12D, geometric mean

Compound: CN1CCC[C@H]1COc1nc(N2CC3CCC(C2)N3)c2cc(C3CC3)c(-c3cc(O)cc4ccccc34)c(F)c2n1
- IC50 [1]: 10 to 100 µM
- IC50 [2]: 0.0001 to 10 µM
- IC50 [3]: 0.0001 to 10 µM

Structures were worked out from names or drawings and are uncertain.
